Patent US20200253922A1, “METHODS FOR NON-[…] ADMINISTRATION OF CANNABINOIDS USING SOFT MIST […]” (Molecular Infusions, LLC, priority 2019, published 2020)
Some of these results come from one statement about several compounds together. At least one structure is not confirmed: it was looked up by name or label, or the drawing left a doubt.

Assay: Terpene solubility assessment in base formulation of 10% Saline, 20% Water, 70% Ethanol
Assay type: physicochemical
Settings: base formulation 10% Saline
Experimental: The base formulation was prepared in bulk and 15 g aliquots were transferred to 22 ml scintillation vials. Pure, botanically derived terpenes were purchased from commercial sources.
For C=CC(C)(O)CCC=C(C)C (stereo not drawn) [Linalool], the “concentrations at which soluble” value was ≤ 0.12 % w/w. With CC1=CCC(=C(C)C)CC1 [Terpinolene] the “concentrations at which soluble” value was ≤ 0.12 % w/w. For C=C1CC/C=C(\C)CC[C@@H]2[C@@H]1CC2(C)C [β-caryophyllene], the “concentrations at which soluble” value was ≤ 0.12 % w/w.
